Reference: patent US20240228612A1

How the values were obtained:
[1] = target: cynomolgus monkey Nectin-4 protein (cynomolgus monkey); experiment: BLI (Octet Fortebio)
[2] = target: cynomolgus monkey Nectin-4 protein (cynomolgus monkey); experiment: ELISA, coated antigen
[3] = target: cynomolgus monkey Nectin-4 protein (cynomolgus monkey); experiment: ELISA, coated cynomolgus monkey Nectin-4, anti-human-HRP

Measured: binding

B1: anti-human Nectin-4 humanized monoclonal antibody 31HZ (antibody, human IgG1, kappa, V domains shown)
VH: QVQLVQSGAEVKKPGSSVKVSCKASGYTFTDYWMNWVRLAPGQGLEWIGMIHPSDSETRLNQKFQGRVTLTVDKSTSTAYMELSSLRSEDTAVYYCARWDFRIYYAMDYWGQGTLVTVSS
VL: DVVITQSPDSLAVSLGERATINCKSSQSLLNTNSQKNYLAWYQQKPGQSPKLLVYFASTRESGVPDRFSGSGSGTDFTLTISSLQAEDVAVYFCQQHYSTPLTFGGGTKVEIKR
binds: all assays above

B2: anti-human Nectin-4 humanized monoclonal antibody 74HZ (antibody, human IgG1, kappa, V domains shown)
VH: QVQLVQSGAEVKKPGSSVKVSCKASGYTFINYWMNWVRQAPGQGLEWIGMIHPSDSATRLNQSFQGRVTLTVDKSTSTAYMELSSLRSEDTAVYYCARWGNFYTVNAWYYFDYWGQGTLVTVSS
VL: B1 VL with V2I, S28T, T32S, S34T, V54F, G106Q, V110L
binds: all assays above

B3: anti-human Nectin-4 humanized monoclonal antibody 56HZ (antibody, human IgG1, kappa, V domains shown)
VH: QVQLQESGPGLVKPSQTLSLTCTVSGYFNSITSDYDWHWIRHHPGKGLEWMGYISFSGRTYYNPSLKSRVTISHDTSKNQFSLKLSSVTAADTAVYYCARGNYDGFDYWGQGTLVTVSS
VL: DIVLTQSPATLSLSPGERATLSCRASQNIGTSIHWYQHKPGQSPRLLIKFASESISGIPARFSGSGSGTDFTLTISSLEPEDFAVYYCQQSKSWPTYTFGGGTKVEIKR
binds: all assays above

Where a chain is given by its changes, count along the chain named. Results are given in words; binding and its absence hold for the method and conditions named. Binding calls can cover weak binding; strength is not graded here.
